Test results: patent publication EP0622459A1, “Fused proteins for preparing vasoactive intestinal polypeptide analogs, method of preparing same and recombinant plasmids and transformant microorganisms” (SANWA KAGAKU KENKYUSHO CO., LTD., priority 1993, dated 1994)
At least one peptide structure holds a part that was inferred or is arguable (an end, a ring closure or a residue).

System: histamine-induced bronchoconstriction
Experiment: Konzett-Roessler method: inhibition of histamine-induced bronchoconstriction in guinea pigs
Type: in vivo
Details: native VIP as control

In the case of CC[C@H](C)[C@H](NC(=O)[C@H](CO)NC(=O)[C@H](CC(N)=O)NC(=O)[C@H](CC(C)C)NC(=O)[C@H](Cc1ccc(O)cc1)NC(=O)[C@H](CCCCN)NC(=O)[C@H](CCCCN)NC(=O)[C@@H](NC(=O)[C@H](C)NC(=O)[C@H](CCSC)NC(=O)[C@H](CCC(N)=O)NC(=O)[C@H](CCCCN)NC(=O)[C@H](CCCNC(=N)N)NC(=O)[C@H](CC(C)C)NC(=O)[C@H](CCCNC(=N)N)NC(=O)[C@@H](NC(=O)[C@H](Cc1ccc(O)cc1)NC(=O)[C@H](CC(N)=O)NC(=O)[C@H](CC(=O)O)NC(=O)[C@@H](NC(=O)[C@H](Cc1ccccc1)NC(=O)[C@@H](NC(=O)[C@H](C)NC(=O)[C@H](CC(=O)O)NC(=O)[C@H](CO)NC(=O)[C@@H](N)Cc1c[nH]cn1)C(C)C)[C@@H](C)O)[C@@H](C)O)C(C)C)C(=O)N[C@@H](CC(C)C)C(=O)N[C@@H](CC(N)=O)C(N)=O [native VIP, vasoactive intestinal polypeptide], the “dose required for inhibiting histamine-induced airway contraction by 50%” value is reported as 7.5 µg/kg.
